Part of at least one peptide drawing is inferred or uncertain, most often the ends. Bridge positions count the residues as written; N and C are the ends. Peptide text beside a SMILES is read from it.
Experiments:
[1] = target: T1, EPO binding protein (EBP) (Homo sapiens, UniProt P19235); assay: EBP dimerization, DPDPB crosslinking with SDS-PAGE; assay type: biochemical; settings: co-incubation of peptide, DPDPB and EBP, FIG. 4
T1 construct: made in house; host or cells: E. coli
T1 sequence (P19235 25-250 limits assumed): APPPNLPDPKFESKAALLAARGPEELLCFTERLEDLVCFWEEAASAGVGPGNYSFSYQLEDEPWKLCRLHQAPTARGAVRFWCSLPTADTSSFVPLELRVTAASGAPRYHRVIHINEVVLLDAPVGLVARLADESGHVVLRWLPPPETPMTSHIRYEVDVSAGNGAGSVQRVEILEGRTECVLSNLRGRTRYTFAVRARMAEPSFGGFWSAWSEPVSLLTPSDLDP

murine EPO receptor = target: T2, murine EPO receptor (Mus musculus, UniProt P14753); assay: EPO dependent cell proliferation assay, FDC-P1/ER cells; assay type: cell-based; settings: [3H]thymidine incorporation, amount giving half of maximal activity obtained with EPO
T2 construct: expressed in transfected cells; host or cells: FDC-P1/ER cells
T2 sequence (P14753 25-507): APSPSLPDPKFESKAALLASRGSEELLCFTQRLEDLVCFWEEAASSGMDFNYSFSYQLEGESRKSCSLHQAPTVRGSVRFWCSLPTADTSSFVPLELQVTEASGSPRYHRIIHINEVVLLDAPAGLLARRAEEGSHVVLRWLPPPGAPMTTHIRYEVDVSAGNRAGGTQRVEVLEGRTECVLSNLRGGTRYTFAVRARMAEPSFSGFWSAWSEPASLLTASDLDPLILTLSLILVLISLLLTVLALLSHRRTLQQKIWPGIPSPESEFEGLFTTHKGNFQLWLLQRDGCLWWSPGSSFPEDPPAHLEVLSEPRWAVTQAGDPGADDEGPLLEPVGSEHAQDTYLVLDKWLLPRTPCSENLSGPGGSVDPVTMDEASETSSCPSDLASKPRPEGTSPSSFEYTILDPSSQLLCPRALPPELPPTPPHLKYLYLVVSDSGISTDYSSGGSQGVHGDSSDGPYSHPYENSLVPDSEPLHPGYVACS
Experimental: (§1) After 24 hours, the cells were counted, resuspended at 800,000 cells/ml and dispensed at 40,000 cells/well. Stock solutions of the peptide dimer (5 mM in PBS) and peptide (10 mM in DMSO) were prepared and dispensed in triplicate to final concentrations of 1×10^-10 M through 1×10^-5 M and adjusted to a final volume of 0.2 ml. […] After a 42 hr incubation at 37° C. (ca. 2 cell doublings) 1 μCi/well of [^3 H] thymidine was added and the incubation continued for 6 hr at which time the cells were harvested and counted to assess [^3 H]thymidine incorporation as a measure of cell proliferation.

[2] = target: T3, extracellular domain of the human erythropoietin receptor (EPO binding protein, EBP) (Homo sapiens, UniProt P19235); assay: Immobilized EBP based [125I]EPO competition binding assay; settings: IC50 in [125I]EPO competition on EBP beads, relative to Seq. I. D. No. 8 (IC50 5 μM)
T3 construct: made in house; host or cells: E. coli
T3 sequence (P19235 25-250 limits assumed): T1 sequence (P19235 25-250 limits assumed)
Experimental: The iodoacetyl activation chemistry of Sufolink beads (Pierce Chemical Co, Rockford, Ill.) is specific for free thiols and assures that the linkage is not easily reversible. EBP-Sulfolink beads were made as follows: SulfoLink gel suspension (10 ml) was mixed with of coupling buffer (40 ml: 50 mM Tris, pH 8.3, 5 mM EDTA) and the gel was allowed to settle. […] The mixture was rocked gently for 30 minutes at room temperature and the beads were allowed to settle for 1 hour at room temperature. The supernatant was removed and retained. The beads were washed twice with 20 ml of coupling buffer. The washes were recovered as well. The beads were then treated with 20 ml of 0.05M cysteine for 30 minutes at room temperature to block unbound sites. Finally, the beads were washed with 50 ml of 1M NaCl, then with 30 ml of PBS, and resuspended in 20 ml of PBS and stored at 4° C. The amount of EBP which was covalently bound to the beads was determined by comparing the OD280 of the original EBP solution to the total OD280 recovered in the reaction supernatant and the two 20 ml washes. […]
Initial assay points with no added peptide were included in each assay to determine total binding. […] The columns containing the washed beads were placed in 12×75 mm glass tubes and bound radioactivity levels determined in a gamma counter.

BDF1 mice = assay: Polycythemic exhypoxic mouse bioassay ([59Fe] incorporation into nascent red blood cells); assay type: in vivo; settings: subcutaneous; n = 10
Experimental: Peptides were assayed for in vivo activity in the polycythemic mouse bioassay adapted from the method described by Cotes and Bangham (1961), Nature 191: 1065-1067. BDF1 mice were allowed to acclimate to ambient conditions for 7-10 days. Body weights were determined for all animals. Low weight animals (<15 grams) were not used. Mice were introduced to hypobaric chambers with a 24 hour conditioning cycle consisting of 0.40% +/-0.02 atm. for 18 hours followed by 6 hours at ambient pressure for a total of 14 days. Following the 14 day period, mice were placed in ambient pressure for 72 hours prior to dosing. […] Peptide sample stock solutions (excluding peptide dimers) were first solubilized in dimethyl sulfoxide (DMSO). Control groups included one group of vehicle alone, and one group of (DMSO) at final concentration of 1%.
Each dose group contained 10 mice. Mice were injected subcutaneously (scruff of neck) with 0.5 ml of the appropriate sample. […]
Mouse body weights were determined twenty four hours following [^59 Fe] administration and the mice were sacrificed forty eight hours following the [^59 Fe] injection. Blood was collected from each animal by cardiac puncture and hematocrits were determined (heparin was used as the anticoagulant). Each blood sample (0.2 ml) was analyzed for [^59 Fe] incorporation using a Packard gamma counter. […]

[3] = target: T4, truncated human EPO receptor (Homo sapiens, UniProt P19235); assay: EPO dependent cell proliferation assay, FDC-P1/trER cells; assay type: cell-based; settings: 10^-5 M; human EPO receptor cell line; FIG. 8
T4 construct: expressed in transfected cells; host or cells: FDC-P1/trER cells (murine FDC-P1 derived)
T4 sequence (P19235 25-468 limits assumed): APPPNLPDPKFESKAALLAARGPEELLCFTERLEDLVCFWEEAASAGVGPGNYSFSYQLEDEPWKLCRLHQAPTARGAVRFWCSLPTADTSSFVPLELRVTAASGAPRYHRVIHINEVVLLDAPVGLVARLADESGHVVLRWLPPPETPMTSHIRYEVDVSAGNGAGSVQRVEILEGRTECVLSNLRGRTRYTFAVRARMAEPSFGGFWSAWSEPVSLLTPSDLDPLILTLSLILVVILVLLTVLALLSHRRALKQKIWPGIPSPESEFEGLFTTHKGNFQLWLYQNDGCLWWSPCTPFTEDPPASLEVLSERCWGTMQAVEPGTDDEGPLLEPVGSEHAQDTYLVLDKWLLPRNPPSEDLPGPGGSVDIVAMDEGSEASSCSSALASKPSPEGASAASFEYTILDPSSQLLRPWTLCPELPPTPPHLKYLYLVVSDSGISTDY
Experimental: as §1

SMILES	EBP dimerization (crosslinking signal) [1]	EPO-ED50 murine receptor (murine EPO receptor) [nM]	Relative Binding (binding relative to Seq. I. D. No. 8) [2]	Amount required for equivalencty to 0.025U EPO (BDF1 mice) [nmol]	proliferation (cpm) relative to background [3]
CC(C)C[C@@H]1NC(=O)[C@@H]2CCCN2C(=O)CNC(=O)[C@H](Cc2ccccc2)NC(=O)[C@H](Cc2c[nH]cn2)NC(=O)[C@@H](NC(=O)[C@H](CO)NC(=O)[C@H](Cc2ccc(O)cc2)NC(=O)[C@@H](NC(=O)CNC(=O)CN)[C@@H](C)O)CSSC[C@@H](C(=O)N[C@@H](CCCCN)C(=O)N2CCC[C@H]2C(=O)N[C@@H](CCC(N)=O)C(=O)NCC(=O)NCC(N)=O)NC(=O)[C@H](C(C)C)NC(=O)[C@H](Cc2c[nH]c3ccccc23)NC(=O)[C@H]([C@@H](C)O)NC1=O [Seq. I. D. No. 8] (H-GGTYSCHFGPLTWVCKPQGG-NH2; disulfide 6-15)	a dimeric EBP product was formed	100	1	3.8	
CC(C)C[C@@H]1NC(=O)[C@@H]2CCCN2C(=O)CNC(=O)[C@H](Cc2ccccc2)NC(=O)[C@H](Cc2c[nH]cn2)NC(=O)[C@@H](NC(=O)[C@H](CO)NC(=O)[C@@H](N)Cc2ccc(O)cc2)CSSC[C@@H](C(=O)N[C@@H](CCCCN)C(N)=O)NC(=O)[C@H](C(C)C)NC(=O)[C@H](Cc2c[nH]c3ccccc23)NC(=O)[C@H]([C@@H](C)O)NC1=O [peptide (SEQ ID NO: 16)] (H-YSCHFGPLTWVCK-NH2; disulfide 3-12)	gave a strong dimerization band				
CC(C)C[C@@H]1NC(=O)[C@@H]2CCCN2C(=O)CNC(=O)[C@H](Cc2ccccc2)NC(=O)[C@H](Cc2c[nH]cn2)NC(=O)[C@@H](NC(=O)[C@@H](N)CO)CSSC[C@@H](C(=O)N[C@@H](CCCCN)C(N)=O)NC(=O)[C@H](C(C)C)NC(=O)[C@H](Cc2c[nH]c3ccccc23)NC(=O)[C@H]([C@@H](C)O)NC1=O [peptide (SEQ ID NO: 18)] (H-SCHFGPLTWVCK-NH2; disulfide 2-11)	did not appear to stabilize the dimerization signal				no activity above background

— patent publication US5767078A, “Agonist peptide dimers” (priority 1995, dated 1998)
